Data as given in PubChem BioAssay AID1671195 (Yale University, 2021).
The whole screen tested about 22,000 reagents; this is a part drawn at random. About 1,510 of all reagents (6.9%) count as active. 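Active includes knockdowns raising or lowering LDL uptake; positive z-scores mean more uptake, negative mean less.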

Aim: 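Genes whose knockdown alters LDL uptake in liver cancer cells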 (primary screen)
Cell system: human Huh7 hepatoma cells
Reagent: siRNA pool against human genes, 18 nM
Duration: about 2 to 2.5 days of knockdown, then 8 h LDL uptake
Challenge: DiI-labelled LDL at 30 µg/ml for 8 h, in lipoprotein-deficient serum medium
Detection: 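Per-cell DiI-LDL intensity by automated imaging; well means scaled to the plate median and given as a robust z-score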
Scale: robust z-score: higher = more LDL uptake after knockdown
Hit rule: 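a gene counts as active if at least two replicate z-scores exceed ±2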

| gene | robust z-score, replicate 1 | robust z-score, replicate 2 | robust z-score, replicate 3 | activity call |
| --- | --- | --- | --- | --- |
| MBLAC2 | 0.131 | -1.03 | 0.157 | inactive |
| UBE3D | -0.45 | -0.476 | 0.149 | inactive |
| MOCOS | -0.079 | 0.957 | -0.849 | inactive |
| PHEX | -0.115 | -0.335 | -0.0854 | inactive |
| MPHOSPH9 | 1.63 | -0.0583 | -0.199 | inactive |
| C20orf144 | 1.09 | -0.421 | 0.138 | inactive |
| ANKS3 | 0.0978 | 0.459 | 0.66 | inactive |
| PHF24 | -1.46 | 0.918 | -2.13 | inactive |
| RAB40B | 0.301 | -0.695 | -0.7 | inactive |
| TMEM128 | -0.607 | -1 | -0.0569 | inactive |
| HDAC5 | 1.06 | 0.208 | -0.229 | inactive |
| GZMM | -0.657 | -0.346 | -0.424 | inactive |
| AVIL | -2.38 | -2.04 | -2.79 | active |
| ZMYND15 | -1.31 | -0.575 | -1.2 | inactive |
| IL22 | 0.449 | -1.5 | 0.736 | inactive |
| LOC391669 (retired record) | 2.86 | 2.67 | 3.34 | active |
| RAB2A | 3.35 | 0.616 | 1.61 | inactive |
| ZNF891 | -0.44 | -0.186 | -0.4 | inactive |
| MYBPC3 | -0.694 | -0.131 | -0.00429 | inactive |
| SH3BP5L | -0.109 | 0.185 | 0.594 | inactive |
| MCPH1 | 0.485 | 0.607 | 0.333 | inactive |
| NDUFAF7 | -0.0857 | 0.482 | 0.261 | inactive |
| PXYLP1 | 2.05 | 1.09 | 1.87 | inactive |
| CHD6 | 0.72 | 0.533 | 0.614 | inactive |
| NFATC3 | 0.833 | 0.0509 | 0.454 | inactive |
| LOC389950 (retired record) | 0.936 | 1.63 | 0.998 | inactive |
| UBE2S | -1.05 | -1.17 | -2.08 | inactive |
| FCGR3B | -0.42 | -0.672 | -0.586 | inactive |
| TNFAIP6 | -0.439 | -0.337 | -0.587 | inactive |
| LOC388794 (retired record) | 0.115 | -0.266 | 0.44 | inactive |
| RAI1 | 0.97 | -0.0774 | 1.79 | inactive |
| RPL10P14 | 0.905 | 0.904 | 0.613 | inactive |
| ZSWIM2 | 0.893 | 2.38 | 1.62 | inactive |
| RMC1 | 2.14 | 1.24 | 2.46 | active |
| PLCD3 | -0.798 | -0.688 | -0.914 | inactive |

Reagents above marked active (3):
| gene | robust z-score, replicate 1 | robust z-score, replicate 2 | robust z-score, replicate 3 | activity call |
| --- | --- | --- | --- | --- |
| AVIL | -2.38 | -2.04 | -2.79 | active |
| LOC391669 (retired record) | 2.86 | 2.67 | 3.34 | active |
| RMC1 | 2.14 | 1.24 | 2.46 | active |

Additional results:
| gene | robust z-score, replicate 1 | robust z-score, replicate 2 | robust z-score, replicate 3 | activity call |
| --- | --- | --- | --- | --- |
| BMAL2 | -0.399 | -0.113 | 0.094 | inactive |
| ZDHHC8 | 0.205 | 0.732 | -0.106 | inactive |
| PLCB4 | -0.502 | -0.0196 | -0.249 | inactive |
| PHF21B | -0.974 | -0.773 | -1.1 | inactive |
| FOXB1 | 2.22 | 2.31 | 3.63 | active |
| CDKN1A | -0.262 | -0.336 | 2.16 | inactive |
| HSPC047 (retired record) | 0.514 | 1.04 | 1.1 | inactive |
| DHX57 | 0.0858 | 0.877 | 0.587 | inactive |
| LOC284269 | 1.36 | 1.51 | 2.15 | inactive |
| CDK2AP2 | -1.67 | -0.805 | 1.68 | inactive |
| FAM50B | 0.856 | 1.52 | -0.296 | inactive |
| TCEAL5 | -1.48 | -1.42 | -0.891 | inactive |
| G6PC1 | 0.101 | -0.192 | -0.123 | inactive |
| ZDHHC16 | 0.715 | 1.51 | 0.625 | inactive |
| LOC391054 (retired record) | 0.968 | 1.44 | 0.72 | inactive |
| ANKRD20A8P | 0.155 | 0.0919 | 0.526 | inactive |
| AGK | -0.288 | 0.58 | 0.417 | inactive |
| TGIF1 | 0.978 | 1.53 | 1.36 | inactive |
| TMPRSS11E | -0.445 | -1 | -0.828 | inactive |
| CD40LG | 0.403 | 0.00249 | 0.945 | inactive |
| ACTRT3 | -4.44 | 0.665 | 0.806 | inactive |
| PSMD9 | 0.661 | 0.63 | 0.595 | inactive |
| CRCT1 | -1.59 | 0.0825 | -2.34 | inactive |
| CPNE1 | 2.13 | 0.631 | -0.0137 | inactive |
| MAPRE2 | -0.00343 | 0.869 | 0.777 | inactive |
| SNX14 | 0.292 | -0.109 | 0.264 | inactive |
| MRPL21 | -0.888 | -1.01 | -1.03 | inactive |
| CD2BP2 | -0.627 | 0.603 | 0.301 | inactive |
| FAM78B | -0.731 | -0.699 | -1.25 | inactive |
| CDC7 | -0.0286 | 0.733 | 0.258 | inactive |
| ADIPOR2 | -0.823 | -0.892 | -0.732 | inactive |
| PTRHD1 | -1.07 | -1.32 | -1.35 | inactive |
| CENPQ | 2.05 | -0.168 | 1.38 | inactive |
